PubChem BioAssay AID1159578, Peter MacCallum Cancer Centre, 2015
Here is an unselected part of about 18,000 reagents. Over the whole deposit, about 1,030 (5.7%) got an active call. 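Inactive calls also include pools with fewer than 3300 nuclei, whose migration was not assessed.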 Raw values vary from plate to plate and are shown uncorrected. Further read-outs or replicates are left out here.

- Assay: 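siRNA pools altering how lymphatic endothelial cells close a scratch wound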 (primary screen)
- Cell system: human lymphatic endothelial cells
- Reagent: siRNA pool against human genes, 40 nM
- Timing: 48 h after transfection
- Measurement: 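Cells stained with dye and imaged after a scratch; covered wound area and nuclei counted, duplicates averaged, migration set against mock wells and turned into a robust z-score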
- Scale: migration robust z-score: higher = faster migration into the scratch; nuclei per well: higher = more cells in the well
- Active means: 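Pools averaging fewer than 3300 nuclei are never called; remaining pools count as changed when migration robust z lies outside -2 to 2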
- Meaning of the calls: active = migration changed; inactive = no migration change, or too few cells

After knock-down of H6PD, the screen gave migration robust z-score -0.98; nuclei per well, duplicate mean 5599; inactive.
Knock-down of ZBTB4 gave: migration robust z-score 0.24; nuclei per well, duplicate mean 5012; inactive.
After knock-down of OR8K5 the results were migration robust z-score 0.44; nuclei per well, duplicate mean 5674; inactive.
Silencing of NXPE2 resulted in: migration robust z-score 1.56; nuclei per well, duplicate mean 5417; inactive.

2 entries from above in another layout.
{"gene symbol": "ZBTB4", "migration robust z-score": 0.24, "nuclei per well, duplicate mean": 5012, "Call": "inactive"}
{"gene symbol": "OR8K5", "migration robust z-score": 0.44, "nuclei per well, duplicate mean": 5674, "Call": "inactive"}

More records:
ZNF524 showed migration robust z-score -0.79; nuclei per well, duplicate mean 4172; inactive.
For CYTH4, the values are migration robust z-score 1.15; nuclei per well, duplicate mean 6083; inactive.
After knock-down of EOMES, the record shows migration robust z-score -0.24; nuclei per well, duplicate mean 5995; inactive.
CLIP2 showed migration robust z-score -2.57; nuclei per well, duplicate mean 3930; active.
Depletion of RASSF5 came out at: migration robust z-score -0.99; nuclei per well, duplicate mean 5428; inactive.
With knock-down of DUOX2 the results were migration robust z-score -1.25; nuclei per well, duplicate mean 5447; inactive.
With knock-down of TALDO1 the results were migration robust z-score -0.54; nuclei per well, duplicate mean 6780; inactive.
Silencing of PAPSS1 resulted in: migration robust z-score 0.13; nuclei per well, duplicate mean 4679; inactive.
